Measured values as given in paper PMC6993221.
Results are given in words; binding and its absence hold for the method and conditions named. Binding seen in cells or lysates may run through a third protein. Some entries that bind do so weakly or less than the wild type.

Protein sequences, listed by entry. Tags and fused reporters are not part of them.
UniProt Q9Y496: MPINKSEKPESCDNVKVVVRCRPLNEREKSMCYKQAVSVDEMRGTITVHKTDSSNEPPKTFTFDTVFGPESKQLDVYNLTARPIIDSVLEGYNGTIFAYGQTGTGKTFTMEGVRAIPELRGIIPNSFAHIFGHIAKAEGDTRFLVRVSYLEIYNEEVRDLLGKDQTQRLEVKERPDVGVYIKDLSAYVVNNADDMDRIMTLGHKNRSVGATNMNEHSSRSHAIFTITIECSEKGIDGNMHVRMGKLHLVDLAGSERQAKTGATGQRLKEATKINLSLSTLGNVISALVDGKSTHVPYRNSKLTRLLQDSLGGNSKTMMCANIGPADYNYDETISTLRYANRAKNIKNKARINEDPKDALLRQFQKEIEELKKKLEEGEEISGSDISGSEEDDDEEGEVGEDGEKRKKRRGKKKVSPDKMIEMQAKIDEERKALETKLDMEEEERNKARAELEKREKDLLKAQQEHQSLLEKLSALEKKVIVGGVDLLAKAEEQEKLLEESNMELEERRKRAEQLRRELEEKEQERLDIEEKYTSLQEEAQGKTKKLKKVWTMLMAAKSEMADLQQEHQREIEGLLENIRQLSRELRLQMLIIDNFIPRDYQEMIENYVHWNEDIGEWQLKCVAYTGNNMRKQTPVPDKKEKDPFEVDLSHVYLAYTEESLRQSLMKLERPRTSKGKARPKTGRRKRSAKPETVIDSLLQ
UniProt P10071: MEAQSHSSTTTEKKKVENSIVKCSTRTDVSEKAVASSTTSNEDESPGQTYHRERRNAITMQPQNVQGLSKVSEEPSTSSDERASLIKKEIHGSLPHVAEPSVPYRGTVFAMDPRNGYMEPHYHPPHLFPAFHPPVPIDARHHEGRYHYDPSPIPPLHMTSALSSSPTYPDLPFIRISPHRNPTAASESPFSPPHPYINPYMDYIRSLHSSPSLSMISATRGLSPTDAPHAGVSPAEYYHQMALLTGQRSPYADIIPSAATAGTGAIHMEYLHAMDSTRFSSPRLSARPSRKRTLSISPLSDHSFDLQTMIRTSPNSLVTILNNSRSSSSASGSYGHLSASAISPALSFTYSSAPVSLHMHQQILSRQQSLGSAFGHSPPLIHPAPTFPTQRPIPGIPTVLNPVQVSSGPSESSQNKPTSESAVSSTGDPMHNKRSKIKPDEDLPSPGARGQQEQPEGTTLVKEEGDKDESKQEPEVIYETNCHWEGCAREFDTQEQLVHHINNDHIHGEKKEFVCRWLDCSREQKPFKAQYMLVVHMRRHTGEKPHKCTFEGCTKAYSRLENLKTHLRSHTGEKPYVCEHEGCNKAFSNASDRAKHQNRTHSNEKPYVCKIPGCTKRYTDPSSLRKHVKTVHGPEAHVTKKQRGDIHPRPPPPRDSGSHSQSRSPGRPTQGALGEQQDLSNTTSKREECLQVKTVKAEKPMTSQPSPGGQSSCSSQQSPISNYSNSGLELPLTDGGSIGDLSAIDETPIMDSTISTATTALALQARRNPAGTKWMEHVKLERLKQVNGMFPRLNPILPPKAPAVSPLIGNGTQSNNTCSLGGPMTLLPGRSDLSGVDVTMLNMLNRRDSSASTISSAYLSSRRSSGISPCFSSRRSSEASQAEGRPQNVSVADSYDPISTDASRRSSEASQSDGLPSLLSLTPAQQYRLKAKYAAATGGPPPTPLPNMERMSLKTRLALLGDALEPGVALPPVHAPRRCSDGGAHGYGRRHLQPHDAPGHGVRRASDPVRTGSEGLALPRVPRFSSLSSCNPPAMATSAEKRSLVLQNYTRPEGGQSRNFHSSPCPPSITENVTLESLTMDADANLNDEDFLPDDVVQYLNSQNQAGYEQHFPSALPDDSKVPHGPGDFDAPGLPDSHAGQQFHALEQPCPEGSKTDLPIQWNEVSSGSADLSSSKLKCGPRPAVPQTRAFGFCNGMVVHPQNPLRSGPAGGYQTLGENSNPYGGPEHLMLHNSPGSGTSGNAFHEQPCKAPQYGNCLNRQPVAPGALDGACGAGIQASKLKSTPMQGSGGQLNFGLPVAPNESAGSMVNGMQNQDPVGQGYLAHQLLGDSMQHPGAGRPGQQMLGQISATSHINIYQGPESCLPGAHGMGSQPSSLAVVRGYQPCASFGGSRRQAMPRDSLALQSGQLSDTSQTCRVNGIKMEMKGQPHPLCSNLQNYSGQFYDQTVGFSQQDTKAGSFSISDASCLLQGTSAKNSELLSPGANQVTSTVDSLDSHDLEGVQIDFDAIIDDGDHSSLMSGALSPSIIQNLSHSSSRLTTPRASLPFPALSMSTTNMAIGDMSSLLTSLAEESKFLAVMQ
UniProt P10070: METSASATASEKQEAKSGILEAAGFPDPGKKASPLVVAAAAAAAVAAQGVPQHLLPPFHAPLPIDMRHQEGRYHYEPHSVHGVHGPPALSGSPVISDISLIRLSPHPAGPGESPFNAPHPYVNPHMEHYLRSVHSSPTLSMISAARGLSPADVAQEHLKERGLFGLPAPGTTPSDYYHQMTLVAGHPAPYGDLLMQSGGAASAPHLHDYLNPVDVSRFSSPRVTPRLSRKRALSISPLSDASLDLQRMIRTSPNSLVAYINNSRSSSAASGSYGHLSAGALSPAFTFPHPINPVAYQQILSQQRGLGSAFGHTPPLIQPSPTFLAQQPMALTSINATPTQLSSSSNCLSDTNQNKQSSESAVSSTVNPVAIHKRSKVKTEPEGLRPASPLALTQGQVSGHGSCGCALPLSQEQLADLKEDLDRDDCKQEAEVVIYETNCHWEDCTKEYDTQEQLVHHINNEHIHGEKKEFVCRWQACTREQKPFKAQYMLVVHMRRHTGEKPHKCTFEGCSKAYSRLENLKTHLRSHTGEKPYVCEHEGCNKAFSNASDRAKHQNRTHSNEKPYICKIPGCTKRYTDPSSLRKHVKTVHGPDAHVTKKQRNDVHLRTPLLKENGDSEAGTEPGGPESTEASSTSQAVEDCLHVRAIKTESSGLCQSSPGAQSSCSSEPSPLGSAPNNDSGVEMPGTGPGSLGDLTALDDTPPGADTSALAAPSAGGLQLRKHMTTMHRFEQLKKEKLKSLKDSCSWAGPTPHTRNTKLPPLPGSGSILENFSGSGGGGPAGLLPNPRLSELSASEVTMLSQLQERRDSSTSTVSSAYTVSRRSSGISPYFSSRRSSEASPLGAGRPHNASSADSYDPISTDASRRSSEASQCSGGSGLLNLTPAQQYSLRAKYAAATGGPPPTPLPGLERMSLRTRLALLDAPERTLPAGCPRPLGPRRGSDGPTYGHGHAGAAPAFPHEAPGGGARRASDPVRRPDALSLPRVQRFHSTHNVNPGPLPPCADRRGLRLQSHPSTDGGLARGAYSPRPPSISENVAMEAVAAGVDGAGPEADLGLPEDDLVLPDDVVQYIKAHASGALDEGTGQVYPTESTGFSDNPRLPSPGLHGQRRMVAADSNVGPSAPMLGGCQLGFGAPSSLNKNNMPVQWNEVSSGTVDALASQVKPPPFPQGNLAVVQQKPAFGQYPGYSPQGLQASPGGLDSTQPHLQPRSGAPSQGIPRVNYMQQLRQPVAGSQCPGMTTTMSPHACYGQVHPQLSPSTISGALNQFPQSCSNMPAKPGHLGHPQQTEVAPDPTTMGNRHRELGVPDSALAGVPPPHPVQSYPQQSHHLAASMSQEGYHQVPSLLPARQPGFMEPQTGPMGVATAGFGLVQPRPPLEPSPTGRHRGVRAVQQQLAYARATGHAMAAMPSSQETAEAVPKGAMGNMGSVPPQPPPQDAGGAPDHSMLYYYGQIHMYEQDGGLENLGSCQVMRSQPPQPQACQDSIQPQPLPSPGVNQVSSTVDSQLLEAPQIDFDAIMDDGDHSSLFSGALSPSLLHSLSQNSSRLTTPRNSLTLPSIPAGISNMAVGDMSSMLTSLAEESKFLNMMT

Molecular target: Kinesin family member 3A (KIF3A) (human (endogenous in MRC-5)) (UniProt Q9Y496)
Test: co-IP; anti-KIF3A immunoprecipitates (Protein A sepharose, overnight, 4 °C) from whole cell lysates (RIPA buffer) of MRC-5 cells untreated or treated with SiO2 for 12 and 48 h; western blot for GLI2 and GLI3; anti-IgG as control

Row | Substance | binding
1 | Glioma-associated oncogene homolog 3, full-length form (GLI3^FL) (from UniProt P10071 1-1580) | binds
2 | Glioma-associated oncogene homolog 2, full-length form (GLI2^FL) (from UniProt P10070 1-1586) | binds
